These are yes or no findings as the source states them, for the method shown.

The target in this test is Qri7 (30-407) V134R (yeast (Saccharomyces cerevisiae)) (UniProt P43122). Kind of test: condition: 0.3125, 0.0625, 0.125, 0.250, 0.5 or 1 mg/ml (methods); AUC; sedimentation velocity, 20°C, 42 000 rpm, 0.3125, 0.0625, 0.125, 0.250, 0.5 or 1 mg/ml protein; both purified.

B1: Qri7 (30-407) V134R (enzyme, UniProt P43122 30-407)
chain: RKGYKVLAIETSCDDTCVSVLDRFSKSAAPNVLANLKDTLDSIDEGGIIPTKAHIHHQARIGPLTERALIESNAREGIDLICVTRGPGMPGSLSGGLDFAKGLARAWNKPLIGVHHMLGHLLIPRMGTNGKVPQFPFVSLLVSGGHTTFVLSRAIDDHEILCDTIDIAVGDSLDKCGRELGFKGTMIAREMEKFINQDINDQDFALKLEMPSPLKNSASKRNMLSFSFSAFITALRTNLTKLGKTEIQELPEREIRSIAYQVQESVFDHIINKLKHVLKSQPEKFKNVREFVCSGGVSSNQRLRTKLETELGTLNSTSFFNFYYPPMDLCSDNSIMIGWAGIEIWESLRLVSDLDICPIRQWPLNDLLSVDGWRTDQL
In the case of B1, the binding result is “no binding”.

Values taken from PMC3695523, “Reconstitution and characterization of eukaryotic N6-threonylcarbamoylation of tRNA using a minimal enzyme system” (Nucleic Acids Research, 2013).
